Data published in doi:10.1101/2025.10.31.25337980.
These are yes or no findings as the source states them, for the method shown. Binding seen in cells or lysates may run through a third protein. Some results given as binding are weak or reduced against the parent protein; the word gives no strength.

The chains behind the UniProt entries cited, without tags or fusion partners.
UniProt P55258: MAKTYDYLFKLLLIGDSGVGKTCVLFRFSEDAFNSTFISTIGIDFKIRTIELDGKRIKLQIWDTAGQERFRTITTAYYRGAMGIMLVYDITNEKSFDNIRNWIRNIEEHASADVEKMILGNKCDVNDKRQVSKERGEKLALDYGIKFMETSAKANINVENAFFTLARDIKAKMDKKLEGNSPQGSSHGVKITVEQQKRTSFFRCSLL

Target: T1, TBC1D8 (mouse (endogenous in mouse spleen)) (UniProt Q9Z1A9)
T1 sequence: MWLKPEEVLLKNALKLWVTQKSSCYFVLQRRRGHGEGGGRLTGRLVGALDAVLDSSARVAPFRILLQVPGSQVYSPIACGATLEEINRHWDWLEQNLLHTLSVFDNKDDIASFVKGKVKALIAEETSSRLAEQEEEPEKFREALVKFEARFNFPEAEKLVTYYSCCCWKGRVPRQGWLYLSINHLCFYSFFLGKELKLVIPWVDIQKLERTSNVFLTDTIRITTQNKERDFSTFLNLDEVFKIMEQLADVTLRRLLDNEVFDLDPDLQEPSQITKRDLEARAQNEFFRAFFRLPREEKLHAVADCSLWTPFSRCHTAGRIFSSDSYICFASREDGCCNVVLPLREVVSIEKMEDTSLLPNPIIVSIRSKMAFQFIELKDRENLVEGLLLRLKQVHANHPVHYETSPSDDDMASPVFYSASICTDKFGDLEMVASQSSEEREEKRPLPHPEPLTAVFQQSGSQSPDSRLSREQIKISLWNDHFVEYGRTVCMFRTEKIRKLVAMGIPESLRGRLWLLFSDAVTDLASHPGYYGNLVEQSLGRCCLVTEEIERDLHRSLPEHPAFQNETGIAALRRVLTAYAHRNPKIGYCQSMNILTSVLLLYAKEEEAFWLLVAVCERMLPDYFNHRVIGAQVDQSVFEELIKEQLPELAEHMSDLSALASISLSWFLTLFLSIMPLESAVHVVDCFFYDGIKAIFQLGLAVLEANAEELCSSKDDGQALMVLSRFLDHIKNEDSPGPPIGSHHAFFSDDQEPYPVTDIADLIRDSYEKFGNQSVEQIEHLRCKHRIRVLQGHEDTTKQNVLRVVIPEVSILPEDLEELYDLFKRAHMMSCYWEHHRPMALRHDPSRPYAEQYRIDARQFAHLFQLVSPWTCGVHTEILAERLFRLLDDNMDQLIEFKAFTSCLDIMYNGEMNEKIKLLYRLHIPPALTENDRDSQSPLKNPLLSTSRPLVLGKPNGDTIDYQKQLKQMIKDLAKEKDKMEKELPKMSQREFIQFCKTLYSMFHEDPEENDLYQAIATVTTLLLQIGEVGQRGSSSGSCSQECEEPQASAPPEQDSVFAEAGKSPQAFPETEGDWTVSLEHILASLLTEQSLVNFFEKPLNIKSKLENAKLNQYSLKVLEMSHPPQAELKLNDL
Experiment: co-IP

Substance: RAB8A (from UniProt P55258 1-207)
- binding: binds
